Experimental findings from PubChem BioAssay AID493014 (National Center for Advancing Translational Sciences (NCATS), 2011) are described below.

A short description of the assay: qHTS Assay to Find Inhibitors of Chronic Active B-Cell Receptor Signaling. The settings on record: ABC-DLBCL IkBa-CBG/CBR reporter, luminescence ratio (green luciferase fused to IkBa over red control in TMD8 lymphoma cells), 4 h. An outline of the steps: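 Compounds up to 46 uM were incubated four hours with TMD8 cells whose green CBG68 luciferase is fused to IkappaBalpha; red CBR luminescence normalised the signal, and concentration-effect curves were fitted to fusion, red and ratio data.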

[1] abbreviates: measured here: CBR red luminescence, cell number.

The other results are listed elsewhere or left out. These are further read-outs of the screen, such as a control signal, another cell line or another target. No call is given for them. The list favours compounds with an active or inconclusive main result. The note in brackets gives the kind of curve behind each potency; many fits are weak.

Take `O=C(Nc1nc(-c2cccs2)cs1)c1ccc(S(=O)(=O)N2CCCC2)cc1`: the AC50 under setting [1] was 17.8 µM [falling, single point].

Regarding `CCOc1ccccc1NC(=O)CSc1nc2ccccc2nc1N1CCOCC1`, the AC50 under setting [1] was 5.62 µM [falling, partial curve, poor fit].

On to `COc1ccc(NC(=O)c2cc(Cl)ccc2NC(=O)c2ccco2)c(OC)c1`, for which, under setting [1], the half-maximal activity concentration (AC50) was 0.411 µM [falling, partial curve, poor fit].

Consider `Cc1ccccc1Nc1ncnc2c1cnn2-c1ccccc1`, for which, under setting [1], the AC50 is 20.6 µM [falling, partial curve, poor fit].

Regarding `COc1ccc(CCc2nnc(N)s2)cc1OC`, the AC50 under setting [1] is 35.5 µM [rising, single point].

Turning to `Nc1nc(N)nc(-c2ccc(Cl)cc2)n1`, the half-maximal activity concentration (AC50) under setting [1] is 32.6 µM [falling, single point].

For the molecule `COc1ccc2c(c1OC)C(=O)OC2`, the half-maximal activity concentration (AC50) under setting [1] is 35.5 µM [rising, single point].

As to `O=[N+]([O-])c1ccc(Nc2cccc(F)c2)nc1`, the AC50 under setting [1] was 20 µM [rising, partial curve, poor fit].

In the case of `COc1ccc(-c2cn3c(C)c(C(=O)N4CCN(c5ccc(F)cc5)CC4)sc3n2)cc1`, the concentration at half-maximal activity (AC50) under setting [1] was 23.1 µM [falling, single point].

Take `CN=C(Nc1ccc(C(=O)OC)s1)c1ccc(Cl)cc1`: the AC50 under setting [1] is 35.5 µM [falling, single point].

For the molecule `CC(C)=CC(=O)OCC(=O)Nc1cc([N+](=O)[O-])ccc1F`, under setting [1], the concentration at half-maximal activity (AC50) is 0.731 µM [rising, full curve, poor fit].

Turning to `Cc1ccc2c(CC(=O)OCc3cc(=O)n4c(n3)sc3ccccc34)coc2c1`, under setting [1], the concentration at half-maximal activity (AC50) is 35.5 µM [falling, single point].

Consider `COc1cc(OC)cc(C(=O)NC(=S)NCCc2ccccc2)c1`, for which the AC50 under setting [1] was 3.98 µM [falling, partial curve, poor fit].

Turning to `O=C(O)CC12CC3CC(C1)CC(n1ncc(NCc4ccc(F)cc4)c(Cl)c1=O)(C3)C2`, the AC50 under setting [1] is 0.562 µM [rising, full curve, poor fit].

Regarding `CCOC(=O)N1CC=C2C(C#N)=C(N)C(C#N)(C#N)[C@H](c3ccc(OC(C)C)c(OCC)c3)[C@H]2C1`, the AC50 under setting [1] is 18.4 µM [falling, single point].

On to `S=C(NCc1ccco1)Nc1ccc(Cl)c(Cl)c1`, for which, under setting [1], the half-maximal activity concentration (AC50) is 31.6 µM [falling, single point].

With `Cc1cc(O)c(C(C)C)cc1NC(=O)c1ccc(Cl)cc1`, the AC50 under setting [1] is 6.31 µM [rising, partial curve, poor fit].

In the case of `O=C(NCCO)C(O)C(O)C(=O)NCCO` (stereo not drawn), the concentration at half-maximal activity (AC50) under setting [1] was 35.5 µM [falling, single point].

In the case of `CNCCCOc1ccc(C)cc1Br`, the AC50 (measured here: IkBa-CBG green luminescence) is 10.3 µM [rising, partial curve, poor fit].

For `c1ccc2oc(SCc3cn4ccccc4n3)nc2c1`, the AC50 under setting [1] is 0.291 µM [falling, full curve, poor fit].

In the case of `Cc1nc2ccccc2c(=O)n1NC(=O)c1ccc(Cl)c([N+](=O)[O-])c1`, the AC50 under setting [1] was 6.31 µM [falling, partial curve].

Consider `CCOc1cc(/C=N/NC(=O)c2nn(C)cc2Br)ccc1OCc1ccccc1Cl`, for which the half-maximal activity concentration (AC50) under setting [1] is 20.6 µM [falling, partial curve, poor fit].

As to `Cc1ccccc1NC(=O)NCCc1c[nH]c2ccccc12`, the half-maximal activity concentration (AC50) under setting [1] is 1.78 µM [falling, full curve].

For `COc1ccc(-c2cc(C)no2)cc1S(=O)(=O)N1CCN(c2cccc(C)c2)C(C)C1` (stereo not drawn), the half-maximal activity concentration (AC50) under setting [1] was 17.8 µM [falling, single point].

With `COc1cc(OC)cc(-c2nnc(SCc3cccnc3)o2)c1`, the AC50 under setting [1] was 3.16 µM [falling, full curve, poor fit].

For the molecule `Cc1ccc(S(=O)(=O)NC2OC(=O)C(Cl)=C2Cl)cc1` (stereo not drawn), the half-maximal activity concentration (AC50) under setting [1] was 6.51 µM [falling, single point].

With `O=C1C(N2CCOCC2)=C(n2nnc3ccccc32)C(=O)c2ccccc21`, the concentration at half-maximal activity (AC50) under setting [1] was 3.26 µM [falling, full curve].

As to `O=C(CSc1ccc(Cl)cc1)Nc1ccc(N2CCN(C(=O)c3ccco3)CC2)cc1`, the half-maximal activity concentration (AC50) under setting [1] was 0.82 µM [falling, full curve, poor fit].

`CC(C)NC(=O)c1ccc2c(c1)N(CC(=O)N1CCOCC1)C(=O)C(C)(C)O2`: the AC50 under setting [1] is 10 µM [rising, partial curve, poor fit].

Consider `O=C1c2ccccc2-c2c1cccc2C(=O)N1CCOCC1`, for which the AC50 under setting [1] is 11.6 µM [rising, partial curve, poor fit].

`Cc1ccc(C(=O)CCC(=O)Nc2ccccc2C)c(C)c1`: the concentration at half-maximal activity (AC50) under setting [1] was 10 µM [falling, partial curve, poor fit].

Regarding `O=C(Nc1ccccc1)c1ccc(NCCN2C(=O)CCC2=O)c([N+](=O)[O-])c1`, the AC50 under setting [1] was 0.794 µM [rising, full curve, poor fit].

Consider `Cc1ccc(-n2c(Cc3cccs3)nnc2SCC(=O)OC(C)C)cc1`, for which the half-maximal activity concentration (AC50) under setting [1] is 35.5 µM [falling, single point].

Take `OC(CSc1ccccc1Cl)CN1CCN(c2ccccc2F)CC1` (stereo not drawn): under setting [1], the AC50 was 10.3 µM [rising, partial curve].

In the case of `Cc1cc(C(C)(C)C)n2nc(C)c(-c3ccccc3)c2n1`, under setting [1], the AC50 is 35.5 µM [rising, single point].

As for `COc1ccc(C2NC(=O)NC(C)=C2C(C)=O)cc1` (stereo not drawn), under setting [1], the AC50 is 29.1 µM [rising, single point].

In the case of `COc1ccc(-c2ccc3oc(-c4ccsc4)cc(=O)c3c2)cc1F`, the AC50 under setting [1] is 2.06 µM [falling, partial curve].

For `C=CCc1c(C)nc(SCC(=C)C)[nH]c1=O`, the concentration at half-maximal activity (AC50) under setting [1] is 14.6 µM [rising, partial curve].

In the case of `Clc1ccc(-c2csc(N3CCc4ccccc4C3)n2)cc1`, the AC50 under setting [1] is 3.98 µM [rising, partial curve, poor fit].

Turning to `COc1cc(OC)cc(C(=O)NC(=S)Nc2ccc(Cl)c(C(=O)O)c2)c1`, the half-maximal activity concentration (AC50) under setting [1] was 22.4 µM [falling, single point].

Regarding `COc1ccccc1C(=O)NC(CCSC)C(=O)NNC(=O)c1ccccc1O` (stereo not drawn), the AC50 under setting [1] was 16.4 µM [falling, single point].

As to `CCc1nn2c(NCCOC)cc(C)nc2c1-c1ccc(F)cc1`, the AC50 under setting [1] was 35.5 µM [falling, single point].

With `CC(O)CNCCNCc1c(OCc2ccccc2)ccc2ccccc12` (stereo not drawn), under setting [1], the AC50 is 11.2 µM [falling, partial curve].
